According to publication PMC10163288:
This is one part of the list.

B1: il2ra_site1_2b5i_sap_14_mot_HHH_b2_01684_af2_000000128_0001_1_17_H_._HHH_b1_05605_0001_0000200010_0000001_0_0001_af2pred_dldesign_0_af2pred (protein)
chain: SSSSSSSSDRRALLEEANKAFQAGDVEALEALLERAEAAGWEKVARTIRKAIEALLESSSSSSSS
B2: il2ra_site1_3nfp_sap_19_mot_a5dd4818df477eedd074a4c9ae2630b4_0001_000000020_0001_16_33_H_._69a32af0339682088b0ab7bc0c544914_0001_1_0001_0000700030_0000001_0_000 … (protein)
chain: SSSSDREERVEQLLERAEELYEKGNPREADRLLREALRLASEADDPELRELVERVLREAAGSSSS
B3: il2ra_site1_1z92_sap_16_mot_HHH_b2_02761_000000226_0001_1_18_H_._HHH_b1_02055_af2_0001_0000300048_0000001_0_0001_af2pred_0001_af2pred_1 (protein)
chain: SSSSDLEEFAEEVVERLVHELGLSEHDRKLLERSAELALRAGYSERSIRLALEIAAKQASSSSSS
B4: il2ra_site1_3nfp_normal_mot_HHH_b1_01417_af2_000000204_0001_1_19_H_._HHH_b1_00894_0001_0000400032_0000001_0 (protein)
chain: SSSSSRDEEWTEEAERLAEELGDEELVELLRELLEEAKKKGDQRVARELIKVIAKVQLKYRSSSS
B5: il2ra_site2_3nfp_normal_mot_HHH_b1_04324_000000249_0001_1_20_H_._HHH_b2_01176_0001_0000200009_0000001_0 (protein)
chain: SSSSSEELIRLLRAAVLVLEETLDEEEREELRRVLEELEEEGDPELAHELFQLLQRLQEGSSSSS
B6: il2ra_site1_3nfp_sap_24_mot_HHH_b1_07797_af2_000000242_0001_43_57_H_._HHH_b1_08125_0001_0000700036_0000001_0_0001 (protein)
chain: DEEDQARAIAKLLKRAAGVESVEVEVENNEIEVTFKGNDEAVRRAAEAVKLLAKALGIPVEIETE
B7: il2ra_site2_3nfp_sap_24_mot_66bb1f637706d7249e1dd387c51866da_0001_1_000000188_0001_1_12_H_._HHH_b2_08220_0001_0000200006_0000001_0_0001_af2pred_0001_1_af2pred_s … (protein)
chain: SSSSSDEYHAEALFDFARALAALLGDEETLERVRELLERYREEGDPEYLKEVRRLSEELNSSSSS
B8: il2ra_site2_2erj_normal_mot_2fe55654ba661275baf09010e83dfa6f_0001_1_af2_000000002_0001_33_48_H_._afa99cb2f1b48a14133d328b841439c2_0001_af2_0001_0000300034_00000 … (protein)
chain: TEERREEAEELAGGDPELASLILLALRLLERGVPPEEIEEKLRLFAELLGIPPEKVEEALELAEP
B9: il2ra_site1_2b5i_normal_mot_HHH_b1_02271_000000068_0001_1_16_H_._HHH_b1_00849_af2_0001_0000100001_0000001_0_1_af2pred_dldesign_0_af2pred (protein)
chain: SSSSSSSEIEKLIEEAKRLKEQGKRREALKKLEEAYKLASAADDEEKMDEIEELAKELSSSSSSS
B10: il2ra_site2_3nfp_sap_18_mot_ems_3hM_1278_af2_000000151_0001_43_60_H_._1f11f742b06f082c384b25695c7254fa_0001_0001_0000400037_0000001_0_0001 (protein)
chain: SSSSDEEEEIREEAERLFKEAEEKNDEELFRALVELASAAWRLGDHELFAFISELAHRLQSSSSS
B11: il2ra_site1_3nfp_sap_13_mot_HHH_b2_00770_af2_000000063_0001_1_19_H_._HHH_b1_01043_0001_0000300015_0000001_0_0001 (protein)
chain: DNIEIARILDELIRKVPPEVAELLYRVMHLAVRGDPEEARKVLEEILELVGDPLVKELLELVEKL
B12: il2ra_site1_2b5i_sap_11_mot_HHH_b1_01949_af2_000000041_0001_1_19_H_._HHH_b2_05381_af2_0001_0000300023_0000001_0_0001 (protein)
chain: SSSSDEATKRFHELFRLVARLWAEGNPEEAEKVLEELKELAKELGDPAAHQAVEMLEKQLSSSSS
B13: il2ra_site1_1z92_sap_18_mot_a6fd39a3fea750eb5223871b70f163d0_0001_af2_000000011_0001_17_33_H_._HHH_b2_00897_0001_0000300009_0000001_0_0001_af2pred_0001_af2pred_ … (protein)
chain: SSSSSSEEEEIVEELVEEFGLSERQKRSLKIAAEIAKELGASEEEIRRDLERFAEFLKRRSSSSS
B14: il2ra_site1_1z92_sap_14_mot_HHH_b2_02521_000000078_0001_19_35_H_._HHH_b1_04803_af2_0001_0000100001_0000001_0_0001 (protein)
chain: SSSSDEALRRLAERLVEDFVRLADLSEEDEERLQELAEKLVERGVSAQELARILEELARKLSSSS
B15: il2ra_site2_2erj_sap_20_mot_HHH_b1_06157_000000296_0001_22_38_H_._HHH_b1_05978_0001_0000300009_0000001_0_0001_af2pred_0001_1_af2pred_swapped (protein)
chain: SDELLAALAIRVAAKRAGVPSVSVEVSNGTIEVTVEGNDEAVKILREFAESAAKAAGLEVHVETE
B16: il2ra_site1_3nfp_sap_20_mot_HHH_b2_03678_af2_000000278_0001_41_55_H_._9e027cdb5f26361229cf46a28aff2188_0001_1_0001_0000200026_0000001_0_0001_af2pred_0001_af2pre … (protein)
chain: SSSSEELKRRAFELLQEAIRLFNNGNPEEAEKVLEEAQELAEKAGNPKLAEMIEAAQRVNGSSSS
B17: il2ra_site1_3nfp_sap_14_mot_119b7766384adbe86006a62bce89dba1_0001_af2_000000052_0001_18_32_H_._HHH_b2_03369_0001_0000100001_0000001_0_0001 (protein)
chain: SNDEWFERLVKRVQELAEEKNDEEVRELAEEALELWERALEEQDSEKADEAIRIVARLQNRVQSS
B18: il2ra_site2_2erj_sap_19_mot_HHH_b1_01555_af2_000000123_0001_22_39_H_._HHH_b2_02358_af2_0001_0000400024_0000001_0_0001_af2pred_0001_af2pred (protein)
chain: SSSSDEAEELLEEAKRLLEEGNPEEAEKVLRKAAAIAAKLGDHELFVEISELLELVHELGSSSSS
B19: il2ra_site1_3nfp_normal_mot_eb5a5eebac1e5153f932cc6c3f4b2787_0001_af2_000000100_0001_18_33_H_._HHH_b2_00861_0001_0000300015_0000001_0_af2pred_0001_af2pred_1 (protein)
chain: SSSSSEEEREEVRELLEQARESSDPREADELFREALKIATELGDPELYELVAEVLREVAQSSSSS
B20: il2ra_site1_3nfp_sap_18_mot_HHH_b2_07488_000000163_0001_1_17_H_._HHH_b2_01265_af2_0001_0000100006_0000001_0_0001 (protein)
chain: SALELLEEFLKKWPDKEYLEELLRADERDYGDPERAAEILARLMLEMNPDDEELREVLEEIRELR
B21: il2ra_site1_2b5i_normal_mot_f5ff40796168375b462bec8614a1db4a_0001_1_000000138_0001_53_65_H_._HHH_b2_07546_0001_0000300021_0000001_0_af2pred_dldesign_0_af2pred (protein)
chain: SSSSSAPSREYIRELIEKARKEEDPLLRRKILLLARKAAKKLGDEELIAEVERVEAELEKSSSSS
B22: il2ra_site1_1z92_sap_20_mot_HHH_b2_02540_000000162_0001_1_16_H_._HHH_b1_04044_0001_0000300016_0000001_0_0001 (protein)
chain: SSSSSSAERSARQAVRIAVELAELSEEQKKELEELAEELVEEGLDPLEILKILDELARRLSSSSS
B23: il2ra_site1_3nfp_normal_mot_HHH_b1_05523_000000027_0001_1_19_H_._HHH_b2_06006_0001_0000100001_0000001_0_af2pred_0001_af2pred_swapped (protein)
chain: SSSSSDDQERIEELFREAEELVRNGNPEEARRVLEEAIELAEELGSRVTVRFLRQALRIASSSSS
B24: il2ra_site2_2erj_sap_22_mot_HHH_b1_04373_af2_000000118_0001_18_33_H_._HHH_b2_00782_0001_0000700027_0000001_0_0001 (protein)
chain: SSSSDERWKEIARLILEAWELYKEEKNPEEAKEVLEEAERLARENGDEASLRYVEHALREISSSS

The binders below were run against il2ra, P01589 (assay: yeast display titration).

Apparent Kd, inactive:
B1 no binding seen, B2 no binding seen, B3 no binding seen, B4 no binding seen, B5 no binding seen, B6 no binding seen, B7 no binding seen, B8 no binding seen, B9 no binding seen, B10 no binding seen, B11 no binding seen, B12 no binding seen, B13 no binding seen, B14 no binding seen, B15 no binding seen, B16 no binding seen, B17 no binding seen, B18 no binding seen, B19 no binding seen, B20 no binding seen, B21 no binding seen, B22 no binding seen, B23 no binding seen, B24 no binding seen
